Measurements from PMC7819943, “Rice protein-binding microarrays: a tool to detect cis-acting elements near promoter regions in rice”.
This is one part of the list.

Sequences of proteins named here, by UniProt entry; tags and fusion partners are left off.
UniProt Q0JBA9, entry or part of it: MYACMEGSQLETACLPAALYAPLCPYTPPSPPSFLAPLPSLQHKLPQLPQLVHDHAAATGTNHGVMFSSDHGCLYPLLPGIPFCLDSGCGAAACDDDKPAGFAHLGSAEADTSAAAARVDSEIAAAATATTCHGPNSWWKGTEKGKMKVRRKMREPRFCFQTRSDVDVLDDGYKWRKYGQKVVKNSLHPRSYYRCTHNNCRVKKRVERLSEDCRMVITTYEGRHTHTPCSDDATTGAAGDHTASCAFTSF

These sequences were tested against OsWRKY34 (Oryza sativa, UniProt Q0JBA9 1-250) (assay: protein-binding microarray (RPBM); PBS, 2% BSA, 51.3 ng/ul salmon testes DNA, 50 uM zinc acetate, 200 nM TF, 25 C, 1 h; high values mean tight binding). Details: protein: recombinant; tags: N-terminal polyhistidine and DsRed monomer fusion (pET32a); label: CyDye5-dUTP incorporated in the synthesized complementary strand; 3' TTTTT single-stranded linker to array surface; dsDNA, one strand shown.
Procedure, shortened: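 Binding signal is defined as the fluorescence intensity of each feature in arbitrary units, read on an Axon 4000B scanner. Transcription factors with N-terminal polyhistidine and DsRed fusions came from E. coli BL21-CodonPlus and were purified on Ni–NTA. They were incubated at 200 nM for 1 h at 25 °C on a custom Agilent array that had been made double-stranded with Cy5-dUTP, with 50 µM zinc acetate present, and the array was washed.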

Sequence | binding signal
GTGTTGTCTTGTTTACCAGATGCGCTGCAATCTGCAGTGACGGAGTCACCTAGTGCAG | 8090 fluorescence intensity (a.u.)
ACAATAGCGTTGCATAGACCCATCCGTCGCTTCGCTTTCGCGGAGTCACCTAGTGCAG | 8400 fluorescence intensity (a.u.)
AGTCTAAGTGGACTTTTTCCACCATTGTTTGCAAGTCTAGCGGAGTCACCTAGTGCAG | 8260 fluorescence intensity (a.u.)
CACTGCTTTCACTGGAGACCAAAACTGGCTCTCTTTCACACGGAGTCACCTAGTGCAG | 9580 fluorescence intensity (a.u.)
GGGAGGGAGGGTGGCTGTAGTGTGCTAATCACAAATAATTCGGAGTCACCTAGTGCAG | 20500 fluorescence intensity (a.u.)
TTTCTTCCGCCGCATCCACGCTTGCTTCGCGAACGCCACACGGAGTCACCTAGTGCAG | 9860 fluorescence intensity (a.u.)
TTCCTGTGTTTTGCAATCCGCTGTTTTACACTTACATTCCCGGAGTCACCTAGTGCAG | 17300 fluorescence intensity (a.u.)
ATCGCGCCCGCCGTCGACGACCCACGCAAGCACGCACTCGCGGAGTCACCTAGTGCAG | 8830 fluorescence intensity (a.u.)
ATTATTTTTGTTTCACTGATTCACCTGTTGCATATGTAATCGGAGTCACCTAGTGCAG | 8560 fluorescence intensity (a.u.)
CTTGGGCCGATGCATTATTTATACTAGTTTCATGCCCGCGCGGAGTCACCTAGTGCAG | 8270 fluorescence intensity (a.u.)
TTGGGTTGGGTTGGTGAGGTGGGGAGATGGTTTGGTGAGGCGGAGTCACCTAGTGCAG | 17300 fluorescence intensity (a.u.)
CCTCGAGGGATTAGAATCCACTCCCATTCTATACTTCTATCGGAGTCACCTAGTGCAG | 8280 fluorescence intensity (a.u.)
CAACGACTACGGCCTGGTTTAGTTCCCATAAATTTTTCCCCGGAGTCACCTAGTGCAG | 10600 fluorescence intensity (a.u.)
TAACTAAGACCCTCCACGCCTGTTAGTCTGTATGTCATTTCGGAGTCACCTAGTGCAG | 10100 fluorescence intensity (a.u.)
GCACTTCCTATCTCAAATACGACTGCTTCGTCGTAACCCTCGGAGTCACCTAGTGCAG | 9460 fluorescence intensity (a.u.)
ATTTAAAATAGTTTGACTTTGACCAAAGTCAAAACATCTTCGGAGTCACCTAGTGCAG | 13500 fluorescence intensity (a.u.)
TGGCATTGGTAGGATCTAGATCTTGTGTTAATTATAATTCCGGAGTCACCTAGTGCAG | 9020 fluorescence intensity (a.u.)
TTTTCTCCTACTCCTCTATTTTCTCAATCGTGTGTTTCAACGGAGTCACCTAGTGCAG | 14400 fluorescence intensity (a.u.)
TTCTTTCCACCGTCCGATCTCACCGTAGGGTCAATCTGGCCGGAGTCACCTAGTGCAG | 8440 fluorescence intensity (a.u.)
CCGCATCAATCTTCAACTGGTCAACATAAAATCTACTGTTCGGAGTCACCTAGTGCAG | 8940 fluorescence intensity (a.u.)
ACATTTGTTAGAGTTCCATTATGCTCCTGCTAACTTTTTCCGGAGTCACCTAGTGCAG | 9080 fluorescence intensity (a.u.)

Sequence | binding signal
ATATGTTTTGTTCGGTACTATTTTGCTATAACGTGTGACGCGGAGTCACCTAGTGCAG | 9630 fluorescence intensity (a.u.)
CCTGCCATCATATTTCATGCCTTGCTACGTTTGCTTGATGCGGAGTCACCTAGTGCAG | 11300 fluorescence intensity (a.u.)
GTTTGGTGTTTTTTGCGGGCATTTCTGACATGATTTTCCCCGGAGTCACCTAGTGCAG | 8360 fluorescence intensity (a.u.)
ACTTTGATCATAAAATGAGTTACTCTTACTTTCTTTTATTCGGAGTCACCTAGTGCAG | 8920 fluorescence intensity (a.u.)
AGTGAACTTTTTCCTTGGATGGACCAGTTGCGCCCTAGTTCGGAGTCACCTAGTGCAG | 9350 fluorescence intensity (a.u.)
CCACGAAATCTGCTGCACTCACTCCCTGTGGTCGGGCCCACGGAGTCACCTAGTGCAG | 9680 fluorescence intensity (a.u.)
TATCTCACACGGGAAGTCGTTCGAGTCGTCGTCTTCGTCTCGGAGTCACCTAGTGCAG | 8230 fluorescence intensity (a.u.)
TGGTGGAGCTGCCCAAGGTGGGCGGGAGCGGGGCGGCACTCGGAGTCACCTAGTGCAG | 9280 fluorescence intensity (a.u.)
TCCTCATCCAACTCGTCGTTTAATTTGCTGCACCGGCGAACGGAGTCACCTAGTGCAG | 11600 fluorescence intensity (a.u.)
TCAGGGATTGGTGTGGTGCAGAACTGATCTAAGTCTAACTCGGAGTCACCTAGTGCAG | 8310 fluorescence intensity (a.u.)
TTAGTTTTTTAGCATAAATTTGTCGCAAATTTGTTTTATACGGAGTCACCTAGTGCAG | 9500 fluorescence intensity (a.u.)
ATCTATTAGCTTAGGTGTTGGTCTTCTCTCGTAGTCGGGTCGGAGTCACCTAGTGCAG | 8140 fluorescence intensity (a.u.)
AGGGTTGGGGCAGTTGATGTCGATGATCAGTGTGATTCAGCGGAGTCACCTAGTGCAG | 8550 fluorescence intensity (a.u.)
GATGCGTTATACCCGGTTTTTGGTTTTGGAAGACTAGCGACGGAGTCACCTAGTGCAG | 8280 fluorescence intensity (a.u.)
GTCATTCTAGCATTTCTCACATTCATATGGATTTTAATGACGGAGTCACCTAGTGCAG | 8580 fluorescence intensity (a.u.)
GACTAGTTTACCTGTTGTCTGTTCCGACATTCGAGCGGCCCGGAGTCACCTAGTGCAG | 10400 fluorescence intensity (a.u.)
GATTATTATTTGTATTACTTTCTTAGGGTTTTCTCTTGATCGGAGTCACCTAGTGCAG | 13200 fluorescence intensity (a.u.)
GCCCGAGAGCGAACGGCCGTCTGCCACGTCATTTTCGCCGCGGAGTCACCTAGTGCAG | 10200 fluorescence intensity (a.u.)
TGTGAGGCAGTGTGGGATTTCCTTCTTTTTTTTTTCTTCTCGGAGTCACCTAGTGCAG | 11500 fluorescence intensity (a.u.)
CCTTTTTAGTCGGACTTCTTTTTCTTTTTTACCGACTTTGCGGAGTCACCTAGTGCAG | 10300 fluorescence intensity (a.u.)
ATGTACAGCCCACACATCCCCTCAGCTTCCGTTATTACCTCGGAGTCACCTAGTGCAG | 8500 fluorescence intensity (a.u.)

2 records drawn at random from those above:
Sequence | binding signal
GTCATTCTAGCATTTCTCACATTCATATGGATTTTAATGACGGAGTCACCTAGTGCAG | 8580 fluorescence intensity (a.u.)
ATATGTTTTGTTCGGTACTATTTTGCTATAACGTGTGACGCGGAGTCACCTAGTGCAG | 9630 fluorescence intensity (a.u.)
